The supplement of paper PMC3334620
Whole data set: some 33,000 sequences, median “E-score (-0.5 to 0.5)” near -0.0014, cut for the highest 2% near 0.25. Some of the results follow.

Target: T1, Cad1 (UniProt P24813)
T1 sequence: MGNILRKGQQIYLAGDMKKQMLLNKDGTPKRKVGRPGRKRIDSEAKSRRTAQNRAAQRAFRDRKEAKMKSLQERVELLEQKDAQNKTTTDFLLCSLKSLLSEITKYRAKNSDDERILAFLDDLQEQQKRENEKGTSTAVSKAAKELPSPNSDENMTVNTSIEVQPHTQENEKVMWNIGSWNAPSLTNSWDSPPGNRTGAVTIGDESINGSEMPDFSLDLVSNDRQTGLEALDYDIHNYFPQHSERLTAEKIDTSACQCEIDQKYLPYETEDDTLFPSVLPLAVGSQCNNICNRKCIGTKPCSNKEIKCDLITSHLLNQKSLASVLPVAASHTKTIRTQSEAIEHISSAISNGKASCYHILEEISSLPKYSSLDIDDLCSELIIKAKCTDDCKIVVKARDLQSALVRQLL
Assay: PBM E-score (8-mer binding enrichment) (E-score (-0.5 to 0.5)); higher = stronger / more preferred TF binding
Conditions: protein concentration: 100 nM; construct: GST-full length
Outline: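 Using PURExpress in vitro transcription/translation, GST-tagged yeast transcription factors were made in full-length or DNA-binding-domain form. These were applied at about 100-200 nM to double-stranded universal all-10-mer Agilent arrays, and bound protein was detected with fluorescent anti-GST. Scans were normalised with masliner before the Universal PBM Analysis Suite assigned E-scores to ungapped eight-base words pooled with their reverse complements.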

In order of rising “PBM E-score” value:
1. GGGGGACC  -0.409
2. ACCCCCTG  -0.395
3. CCAGTTAC  -0.382
4. TGACTCCA  -0.349
5. CGGCCCCA  -0.307
6. CACGTAGC  -0.271
7. CCTTAGGC  -0.27
8. ATGGGCCG  -0.253
9. CACAACAG  -0.247
10. CCCCTAAG  -0.244
11. GCCCCCTA  -0.241
12. GCAGAGCA  -0.241
13. AAGGTCAA  -0.232
14. CTAGGAGA  -0.23
15. CCCCTATC  -0.224
16. CGCCTAGA  -0.217
17. TCCCTTAA  -0.209
18. AATGCTCC  -0.18
19. CCGATACG  -0.177
20. AAAGGTTC  -0.175
21. GCCCGGTA  -0.174
22. CCGGGTCC  -0.17
23. AAGACTTC  -0.169
24. ACTCCTGG  -0.167
25. TAGTGGAA  -0.162
26. GTCAACCA  -0.161
27. GCATCCTA  -0.16
28. ATCCCAGG  -0.156
29. CAGTCCCA  -0.156
30. ATAGGCCG  -0.154
31. AGTGCCTG  -0.153
32. AGCCTGGG  -0.151
33. CGCCCACG  -0.15
34. ACGACTCA  -0.148
35. CTGCTTCC  -0.147
36. TCCCCGAA  -0.144
37. CTTGCGAC  -0.144
38. AGGTGAGC  -0.141
39. AAGAGGTC  -0.138
40. AGGCATGG  -0.135
41. CACAGGTC  -0.128
42. AGAAGTTC  -0.125
43. GACCAGGC  -0.124
44. ACCCTGAC  -0.12
45. GAGTCCTA  -0.12
46. CCGTCAGG  -0.117
47. CCCGTCGG  -0.117
48. AGCCTGCC  -0.116
49. GGGGTCAA  -0.115
50. ACTTTCTC  -0.114
51. AACCCAGT  -0.114
52. AGCATGCC  -0.111
53. AGAGACAG  -0.11
54. GCTGCCCC  -0.107
55. CGTTGCCC  -0.106
56. GACACCGA  -0.104
57. CATAGGCA  -0.104
58. AAGGGAAG  -0.0992
59. AGTGGTGC  -0.0984
60. AAGGTGTA  -0.0945
61. GCCTAGGC  -0.0941
62. AGGTCATC  -0.0889
63. GCCTGACC  -0.0845
64. ACTGGCTG  -0.081
65. GTACTTAA  -0.0799
66. CACGTTCG  -0.0797
67. GACCATGC  -0.0791
68. CTCACATA  -0.0775
69. CTAGGATC  -0.0767
70. ATAGTGGG  -0.068
71. ACGAAGTG  -0.067
72. ACCGTGGA  -0.0656
73. GGAAGTCA  -0.0654
74. CCTGGCTC  -0.0638
75. ATCGAGCC  -0.0609
76. CCGGCAGA  -0.0597
77. CTTGGTCC  -0.0573
78. TGGCGACA  -0.0568
79. AGTGACCG  -0.0545
80. TCCGCCCA  -0.0481
81. CAGTTAGA  -0.0457
82. CAACCTAG  -0.0439
83. TGAAGGCA  -0.0429
84. AGAATACG  -0.0397
85. GAAGAGCC  -0.0377
86. ACGCTTAT  -0.0377
87. CCTAAAAA  -0.0353
88. AATCTTGA  -0.0311
89. CCAACCGC  -0.0303
90. GAATGGAC  -0.0285
91. GCGCCGGA  -0.0244
92. AAATCCCA  -0.0234
93. CGTCATTA  -0.022
94. GTTGCAGA  -0.0187
95. AGTGTGCG  -0.0172
96. ACATAGCG  -0.017
97. AGTCCGTA  -0.016
98. GGATCTGA  -0.0154
99. ATCCGGGG  -0.0124
100. GGTCCTAA  -0.00787
101. GGTGGCTA  -0.00533
102. TTCTACAA  -0.00494
103. ACAACTCC  -0.00409
104. CTATACGC  -0.00393
105. GAGACCGA  -0.00291
106. CGCGTGGA  -0.00085
107. ATGGTGTC  0.00316
108. ATAGGGTA  0.00484
109. CAATCGCA  0.00664
110. GTTAGGGA  0.0091
111. AACCGGGA  0.00913
112. CCGCTGTA  0.0103
113. AAACGAGA  0.0152
114. GCGACTAC  0.0159
115. ATGACGAC  0.0161
116. GTCGATCA  0.0162
117. TAATTCCA  0.0167
118. AAGTACTC  0.0171
119. AACTCCAC  0.0188
120. AACCAACA  0.0201
121. ACAGCCTA  0.0267
122. CATGAACC  0.0271
123. CGTGGCAG  0.0276
124. ATTGAGCG  0.0304
125. CAGTTAAC  0.031
126. ATCATCCC  0.0336
127. CAACGTCA  0.035
128. CACGCTAA  0.0356
129. ACCCATAA  0.0378
130. TCAAGTAA  0.0378
131. GGGAAGTA  0.0404
132. AGATCGAG  0.0408
133. CGCCCGCA  0.0435
134. ACCGCACG  0.0441
135. ACTCACGG  0.0453
136. GGTTTCAA  0.0476
137. ATCAACTG  0.0477
138. CAAATCCG  0.0491
139. AGAATGAT  0.0516
140. ACTCGCAC  0.0553
141. TTAATTAA  0.0562
142. GGCGCCGA  0.0572
143. GTGCAGAA  0.0618
144. CTTAAATC  0.0641
145. GAATTGGA  0.0649
146. TCCAAAAA  0.0686
147. AAATATGC  0.069
148. CAATGGGA  0.0702
149. ACCAGACT  0.071
150. CTCGTTCA  0.0713
151. GCTTAACA  0.073
152. ACGATTCC  0.0765
153. CAATTGCG  0.0777
154. GAACACAC  0.0786
155. TCAGTGCA  0.0799
156. AATTTAGA  0.0808
157. CGTCACAA  0.0812
158. GTTGTCCA  0.083
159. CCGTATTA  0.0842
160. CAGGAGAC  0.0859
161. CTTTGCAC  0.0899
162. CAATGGTC  0.0909
163. ACCACGCG  0.0948
164. AGTATCTA  0.0971
165. CGGACTGC  0.1
166. CGGCGATC  0.103
167. AAGATTAT  0.104
168. AAATCCAG  0.105
169. AGCTGTGA  0.106
170. GCCGTTAA  0.107
171. ATAAGCCG  0.109
172. AATGTTCC  0.113
173. GCCCCAAC  0.117
174. AAAGCATT  0.117
175. CCGACGAA  0.119
176. GCGTTCAA  0.119
177. TAGGTATA  0.119
178. GTTCGTAA  0.119
179. CCATGCAA  0.119
180. AACCGCGT  0.122
181. AATTAACA  0.123
182. AGATTAGC  0.125
183. CACTGCCA  0.133
184. CGATCTAA  0.134
185. CGTAAATA  0.137
186. CAATAGTA  0.137
187. ACGTCTAG  0.139
188. GTTCACTA  0.14
189. TCGGTGCA  0.14
190. ATTTGTGG  0.143
191. AGCAGCTA  0.147
192. TGGCAAAA  0.148
193. ATTTGGAA  0.149
194. GTCGAAAA  0.149
195. GTCACTTA  0.151
196. TAAAACTA  0.152
197. CATGCATA  0.156
198. ATTCGTTA  0.158
199. GTTATTGA  0.159
200. ACTAAACA  0.162
201. ATAATGGC  0.162
202. ATGGTATC  0.165
203. ATACAAAC  0.166
204. GACGCATC  0.169
205. CAGCAGGA  0.17
206. CTTTAGTA  0.174
207. AATGCTTA  0.177
208. CGTTTATC  0.186
209. CAGTAAGA  0.194
210. GTAATGGA  0.196
211. ATTCGTCA  0.197
212. GATTATTA  0.2
213. TAATACAA  0.219
214. ATATAGTG  0.22
215. AATGCATG  0.254
216. ACAATTAT  0.267
217. AACGAACA  0.269
218. ATTTTCCG  0.304
219. TTAATAAA  0.389
